The values are deposited in ChEMBL (CHEMBL3988442, “University of Dundee, Small-Polar-MMV Screening Library” (2021)).

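Assay of Toxoplasma gondii numbers, read through their beta-galactosidase reporter with a colour substrate. Concentration: 10 µM. Higher reads as fewer parasites (inferred from which compounds were picked for retests). Of about 67,000 compounds tested this way, about 260 (0.38%) reached 50% or more in at least one test.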

Values are the deposited “Percent Effect”, in %.
The record does not define 0% and 100%; most values in the screen are far below 50% and negative numbers occur (in some assays of this library far below -100).
The compounds are a random part of those screened.

structure | effect
OC1(CNCCCN2CCc3ccccc32)CCNC1 (stereo not drawn) | 14.9
[H][C@]12CC[C@]([H])(CN(Cc3cscn3)C1)N(C(=O)c1cc(C(C)C)on1)C2 | -7.247
CCN(CCn1cccn1)Cc1nc(-c2cccc(C)c2)oc1C | -15.52
Cc1nc(C(=O)N(C)CC(=O)N(C)C)nn1-c1ccccc1C(C)C | 13.15
CCc1ccc(C(=O)N2CCCC2c2nnc3n2CCCCC3)o1 (stereo not drawn) | -4.457
CC(C)(C)C1CC(=O)Nc2c1cnn2Cc1ccco1 (stereo not drawn) | -6.54
CC(C(=O)NCC1CCN(c2ccncc2)CC1)S(C)(=O)=O (stereo not drawn) | -26.43
CCOCc1ncn2c1CN(S(=O)(=O)c1cccs1)CC2 | 12.23
CN1CCN(C[C@H]2CC[C@@H](Cc3ccc(CN4CCCC4)cc3)O2)CC1 | 12.12
O=C(Nc1ccccc1)N1CCC(N2Cc3ncccc3C2=O)CC1 | -13.08
Cc1cc2c(=O)n3c(nc2s1)CCN(C(=O)c1ccncc1)CC3 | -3.011
Cc1nn(C)c(C)c1C1CCCN1Cc1cccc(OCC(N)=O)c1 (stereo not drawn) | -8.368
CCn1ncc(C(=O)NCc2ccc(C)c(OC)c2)c1C(F)(F)F | -14.05
CC(c1ccccc1Cl)N1CCN(C(=O)c2ccc(=O)[nH]c2)CC1 (stereo not drawn) | -0.7092
O=c1[nH][nH]cc1-c1ccnc(NCCc2cccc(O)c2)n1 | 16.33
CCNC(=O)[C@@H]1C[C@H](n2cc(CC3CCCCC3)nn2)CN1 | 4.578
CCNC(=O)c1nnc2ccc(N3CCOCC3)cc2n1 | 1.554
O=C(c1ccc(=O)[nH]n1)N(CCO)Cc1cc(Br)ccc1F | 10.18
CC(C)C1CN(C(=O)c2ccc(N3CCCC3)nc2)CCS1 (stereo not drawn) | 3.892
Cc1ccccc1CSc1nc(N)cc(N2C[C@H](O)[C@@H](N(C)C)C2)n1 | -0.1595
CNc1cncc(C2CCCN2C(=O)CCn2ccnc2C(C)C)n1 (stereo not drawn) | 7.176
O=S(=O)(NCC(c1ccsc1)N1CCCCCC1)c1cccs1 (stereo not drawn) | -9.049
O=C(c1cccc(C2CCNC2)c1)N1CCC(N2CCC(O)CC2)CC1 (stereo not drawn) | -20.15
CC(C)Nc1nc2c(c(NC3CC3)n1)CCN(Cc1nccn1C)CC2.O=C(O)C(F)(F)F | 5.14
CN1CC2(CCN(Cc3ncc[nH]3)CC2)CC1=O | -20.28
CCOC(=O)N1CC(C)=C(C)CN1C(=O)Nc1ccc(Cl)c(Cl)c1 | -10.06
CS(=O)(=O)c1ccc(NCc2ccccc2)cn1 | -2.05
Cc1cc(C)c(S(N)(=O)=O)cc1C(=O)NCCN1CCCCC1 | 7.687
O=c1[nH]c2c(c(=O)n1C1CCCCC1)CCC2Nc1ccccc1 (stereo not drawn) | -0.9564
[H][C@@]12CCN(C(C)=O)C[C@]1([H])CCN(Cc1ccc3c(c1)OCO3)C(=O)C2 | 0.2317
Cc1cn2c(n1)CCC(NC(=O)c1cc(C3CC3)[nH]n1)C2 (stereo not drawn) | -10.17
Cc1ccoc1C(=O)NC1CCN(Cc2ccccc2C#N)CC1 | -1.883
CC(C)N(C(=O)N1CCn2cncc2C1)C(C)C | 3.442
O=C(O)COc1ccccc1CN1CCCC1c1ccncn1 (stereo not drawn) | -12.04
Cc1ccc([C@@H]2CN(C(=O)c3cc[nH]c3)C[C@H]2NC(=O)C2CC2)cc1 | 0.9745
CC(C)Cc1cc(C(=O)NC(C)(C)c2nnc(N)s2)n(C)n1 | -3.421
CC(C)c1ncncc1C(=O)N1CCN(Cc2cccnc2)CC1 | -50.88
O=C(Cc1ccccc1)N1CCn2cc(Cn3cncn3)nc2C1 | -5.634
CCC(C(=O)NCC1CCN(c2cnn(C)c(=O)c2)CC1)n1cccn1 (stereo not drawn) | 16.69
CC(C)c1cc(NC(=O)CN2CCc3cncnc3C2)on1 | 5.4
O=C(Nc1ccc(CCN2CCC(O)CC2)cc1)C1CCCOC1 (stereo not drawn) | 9.192
NC(=O)CN1CCCC1c1ccccc1Br (stereo not drawn) | -2.276
CC(C)c1cc(N2CC[C@H](F)C2)n2nccc2n1 | -8.921
Cn1nnnc1SC1CCN(c2ccccc2Cl)C1=O (stereo not drawn) | -42.17
O=C(NCc1ccc2c(c1)OCO2)c1ccccc1C1CCNC1 (stereo not drawn) | -10.92
O=C(O)C(F)(F)F.[H][C@@]12COC[C@]1(C(=O)NC1CC(F)(F)C1)CN(Cc1ccccc1)C2 | -30.29
COc1cccc(S(=O)(=O)N2C[C@@H](O)[C@H](N(C)C)C2)c1 | 24.81
Cc1noc(C)c1CNc1ccc2nc(C3CC3)sc2c1 | 4.744
CCN(CC)C(=O)Cn1ccc2cc(NC(=O)C3CCCO3)ccc21 (stereo not drawn) | -7.481
Cc1csc2c(C3CCN(CCCOc4ccccc4)CC3)nc(C)n12 | -9.798
Cn1cc(Cl)c(CN2CCCC(Cn3cc(CO)nn3)C2)n1 (stereo not drawn) | -1.724
CN(C)c1cc(C(=O)N2CCCCCC2)ccn1 | -0.2347
CC(C)NC(=O)C1(CC2CC(c3ccc(F)cc3)=NO2)CCNCC1.O=C(O)CC(O)(CC(=O)O)C(=O)O (stereo not drawn) | -41.32
[H][C@]1([C@H](O)c2ccc(NC(=O)c3cccnc3)cc2)COCC(=O)N1 | 2.504
NC(=O)CCC1CCCN(c2ccc3c(Cl)ccnc3c2F)C1 (stereo not drawn) | 3.196
COCCN(Cc1cnn(C)c1)CC1CCOC1 (stereo not drawn) | -14.07
Cc1nn(C)c2nc(N3CCCCC3c3cccnc3)sc12 (stereo not drawn) | -7.735
O=C(O)C(F)(F)F.[H][C@@]12OCCN(CC3CCOCC3)[C@@]1([H])CC[C@H]2OC | 12.49
CN(CCCc1cc(-c2ccccc2)n[nH]1)C(=O)CCCn1cncn1 | -5.681
O=C(O)C(F)(F)F.O=C(O)C(F)(F)F.[H][C@@]12COC[C@]1(CNS(=O)(=O)CC)CN(Cc1cccnc1)C2 | 5.963
CCn1nc(C)c(CCN2CC3(CCOC3)CCC2=O)c1C (stereo not drawn) | -1.948
Cn1nnc(NCc2ccc(-c3ccc(Cl)cc3)o2)n1 | 17.68
O=C1CCC2(CCN(S(=O)(=O)c3ccccc3)CC2)N1CC1CC1 | -21.33
CC(C)[C@@H]1CN(C(=O)NCCc2ccccc2)C[C@H]1NS(=O)(=O)N(C)C | -5.594
CCOc1ccc(C(F)(F)F)cc1NC(=O)NCc1noc(C)n1 | -3.759
N#Cc1ccc(C(=O)N2CCC3(CC2)C(=O)Nc2ccccc23)cn1 | 0.5848
FCCOc1cccc(NCc2c[nH]nc2-c2cccnc2)c1 | 0
O=C(Nc1cnc2n1CCCC2)C1CCNCC1 | 6.552
CN(C)CCN(Cc1ccccn1)Cc1ccnn1C1CCCCO1.O=C(O)CC(O)(CC(=O)O)C(=O)O (stereo not drawn) | 3.38
Cc1ncsc1CCn1ccnc1-c1cc2n(n1)CCCNC2 | -3.662
COc1ccc2cc(C(=O)N3CCCC(n4ccnc4C)C3)[nH]c2c1 (stereo not drawn) | -29.27
CC(C)(C)c1nccc(N2CCCCC2CCNS(C)(=O)=O)n1 (stereo not drawn) | 10.01
CC1CN(CC(=O)N2CCOCC2)CCN1Cc1nccn1C (stereo not drawn) | -17.96
Cc1cc(C)c2ncc(C#N)c(NC3CCN(CC(N)=O)CC3)c2c1 | 19
COc1ccc(C(CO)NC(=O)Nc2cccnc2)cc1 (stereo not drawn) | -1.962
CCC(=O)N1CCC2(CCC(N3CCCC3)c3ccccc32)CC1.O=C(O)C(F)(F)F (stereo not drawn) | -1.755
COc1ccc(OC)c(CCNc2ncc(S(N)(=O)=O)s2)c1 | 4.332
CCC(CC)CN1CCC(n2cc(C3CCCC3)nn2)CC1 | 4.468
Cc1cc(NC(=O)N2CCCC2C(=O)NC2CC2)c2ncccc2c1 (stereo not drawn) | 10.45

8 of the entries, repeated:

structure,effect
CC(C)c1ncncc1C(=O)N1CCN(Cc2cccnc2)CC1,-50.88
CCOCc1ncn2c1CN(S(=O)(=O)c1cccs1)CC2,12.23
CC(C)C1CN(C(=O)c2ccc(N3CCCC3)nc2)CCS1 (stereo not drawn),3.892
CN(C)CCN(Cc1ccccn1)Cc1ccnn1C1CCCCO1.O=C(O)CC(O)(CC(=O)O)C(=O)O (stereo not drawn),3.38
O=C(c1cccc(C2CCNC2)c1)N1CCC(N2CCC(O)CC2)CC1 (stereo not drawn),-20.15
O=C(O)C(F)(F)F.O=C(O)C(F)(F)F.[H][C@@]12COC[C@]1(CNS(=O)(=O)CC)CN(Cc1cccnc1)C2,5.963
CN1CC2(CCN(Cc3ncc[nH]3)CC2)CC1=O,-20.28
CC(C)[C@@H]1CN(C(=O)NCCc2ccccc2)C[C@H]1NS(=O)(=O)N(C)C,-5.594